Results taken from the supplement of paper PMC10849652.
Some of the results follow. Residues, ends and D or L forms follow the SMILES beside them. *: point of attachment. Cbz = O=C(OCc1ccccc1)*

The chains behind the UniProt entries cited, without tags or fusion partners. Where a name states a change or a piece, a line headed by the entry shows the natural chain unless it says otherwise.
UniProt Q7Z4Q2: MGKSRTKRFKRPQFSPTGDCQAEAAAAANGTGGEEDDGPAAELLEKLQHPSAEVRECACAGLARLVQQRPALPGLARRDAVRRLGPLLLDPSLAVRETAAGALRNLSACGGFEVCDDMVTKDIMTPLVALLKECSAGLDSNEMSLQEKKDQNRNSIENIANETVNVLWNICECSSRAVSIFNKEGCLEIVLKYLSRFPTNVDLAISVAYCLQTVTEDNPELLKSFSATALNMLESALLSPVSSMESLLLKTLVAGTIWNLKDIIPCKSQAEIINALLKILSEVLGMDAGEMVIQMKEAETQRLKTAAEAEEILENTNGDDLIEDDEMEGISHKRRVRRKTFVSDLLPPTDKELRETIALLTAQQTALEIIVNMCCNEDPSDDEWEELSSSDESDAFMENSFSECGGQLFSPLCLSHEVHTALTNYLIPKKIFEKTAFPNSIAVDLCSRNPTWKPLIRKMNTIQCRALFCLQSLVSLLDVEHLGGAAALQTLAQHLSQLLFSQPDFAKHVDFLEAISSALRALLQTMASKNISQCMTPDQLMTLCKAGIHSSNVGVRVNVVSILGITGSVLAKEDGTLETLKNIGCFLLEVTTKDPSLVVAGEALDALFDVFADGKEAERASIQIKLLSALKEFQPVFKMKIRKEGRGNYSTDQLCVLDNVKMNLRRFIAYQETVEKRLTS
UniProt Q92664: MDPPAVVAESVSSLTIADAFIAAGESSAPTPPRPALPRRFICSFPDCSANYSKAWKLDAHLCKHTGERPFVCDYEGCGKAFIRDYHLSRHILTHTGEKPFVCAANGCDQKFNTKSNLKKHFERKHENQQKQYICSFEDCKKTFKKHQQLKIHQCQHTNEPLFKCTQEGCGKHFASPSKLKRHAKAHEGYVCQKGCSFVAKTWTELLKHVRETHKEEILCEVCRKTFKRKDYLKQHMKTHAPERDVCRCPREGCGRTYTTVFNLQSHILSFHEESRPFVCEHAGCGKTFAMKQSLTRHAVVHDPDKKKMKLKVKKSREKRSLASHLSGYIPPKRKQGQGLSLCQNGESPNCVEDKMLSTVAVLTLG
UniProt O43824: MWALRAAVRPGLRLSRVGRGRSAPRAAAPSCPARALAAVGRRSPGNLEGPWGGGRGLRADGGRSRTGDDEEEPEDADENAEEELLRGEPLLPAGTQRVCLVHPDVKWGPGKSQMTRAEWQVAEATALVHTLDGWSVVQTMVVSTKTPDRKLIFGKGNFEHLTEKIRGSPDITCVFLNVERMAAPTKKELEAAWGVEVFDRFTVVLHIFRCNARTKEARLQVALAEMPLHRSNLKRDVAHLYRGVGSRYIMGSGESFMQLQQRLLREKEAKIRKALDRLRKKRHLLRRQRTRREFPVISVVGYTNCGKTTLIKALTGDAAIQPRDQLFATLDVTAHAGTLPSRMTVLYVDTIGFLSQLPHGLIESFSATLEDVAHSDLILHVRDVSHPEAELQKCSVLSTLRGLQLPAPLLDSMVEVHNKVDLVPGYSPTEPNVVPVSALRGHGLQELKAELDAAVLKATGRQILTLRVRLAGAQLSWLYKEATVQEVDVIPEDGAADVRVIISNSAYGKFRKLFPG
UniProt Q6PII5: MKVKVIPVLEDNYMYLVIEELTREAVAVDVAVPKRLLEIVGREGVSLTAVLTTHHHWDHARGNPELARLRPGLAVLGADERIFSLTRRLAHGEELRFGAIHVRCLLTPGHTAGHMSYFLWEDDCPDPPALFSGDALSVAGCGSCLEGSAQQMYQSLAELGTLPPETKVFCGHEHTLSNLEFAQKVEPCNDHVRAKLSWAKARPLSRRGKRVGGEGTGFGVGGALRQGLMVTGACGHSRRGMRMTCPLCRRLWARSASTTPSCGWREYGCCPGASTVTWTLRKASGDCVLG
UniProt Q9Y5Q8: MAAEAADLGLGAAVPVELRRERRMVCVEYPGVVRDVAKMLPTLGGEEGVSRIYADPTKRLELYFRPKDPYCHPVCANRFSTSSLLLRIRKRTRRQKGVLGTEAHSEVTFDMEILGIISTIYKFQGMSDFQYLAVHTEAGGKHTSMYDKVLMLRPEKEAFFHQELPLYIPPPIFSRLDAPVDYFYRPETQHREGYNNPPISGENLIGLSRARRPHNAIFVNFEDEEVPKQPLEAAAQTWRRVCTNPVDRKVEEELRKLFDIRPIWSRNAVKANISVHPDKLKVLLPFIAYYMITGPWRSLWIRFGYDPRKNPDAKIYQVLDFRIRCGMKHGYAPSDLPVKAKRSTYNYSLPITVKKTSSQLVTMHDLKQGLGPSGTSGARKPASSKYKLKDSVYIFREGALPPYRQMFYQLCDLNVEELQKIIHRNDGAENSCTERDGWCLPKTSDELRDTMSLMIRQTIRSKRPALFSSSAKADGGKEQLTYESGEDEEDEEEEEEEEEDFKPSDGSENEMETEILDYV
UniProt Q8WUI4: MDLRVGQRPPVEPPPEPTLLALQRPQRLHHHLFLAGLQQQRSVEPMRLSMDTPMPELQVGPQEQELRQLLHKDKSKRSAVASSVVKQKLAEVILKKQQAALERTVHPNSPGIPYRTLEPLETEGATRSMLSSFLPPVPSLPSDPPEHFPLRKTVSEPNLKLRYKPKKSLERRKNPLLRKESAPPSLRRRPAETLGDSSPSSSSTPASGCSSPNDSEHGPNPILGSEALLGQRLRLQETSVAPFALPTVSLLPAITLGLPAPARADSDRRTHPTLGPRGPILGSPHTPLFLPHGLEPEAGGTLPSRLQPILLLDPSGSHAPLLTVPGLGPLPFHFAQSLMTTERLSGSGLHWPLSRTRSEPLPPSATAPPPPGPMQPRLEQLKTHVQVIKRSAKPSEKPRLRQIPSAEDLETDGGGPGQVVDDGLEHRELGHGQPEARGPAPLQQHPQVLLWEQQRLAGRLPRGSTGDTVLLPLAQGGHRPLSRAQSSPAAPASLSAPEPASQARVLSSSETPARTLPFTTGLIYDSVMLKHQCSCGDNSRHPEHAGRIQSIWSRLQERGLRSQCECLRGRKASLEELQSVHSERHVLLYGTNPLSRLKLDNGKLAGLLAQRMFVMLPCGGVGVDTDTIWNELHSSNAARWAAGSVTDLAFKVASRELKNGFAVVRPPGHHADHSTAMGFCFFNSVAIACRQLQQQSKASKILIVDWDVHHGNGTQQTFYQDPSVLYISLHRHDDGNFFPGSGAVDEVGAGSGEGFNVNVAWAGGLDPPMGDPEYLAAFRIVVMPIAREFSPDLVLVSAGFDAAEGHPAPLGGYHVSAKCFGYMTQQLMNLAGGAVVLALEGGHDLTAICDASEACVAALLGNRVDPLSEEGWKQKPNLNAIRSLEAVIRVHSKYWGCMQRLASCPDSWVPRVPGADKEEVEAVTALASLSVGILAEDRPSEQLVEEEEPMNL
UniProt P78417: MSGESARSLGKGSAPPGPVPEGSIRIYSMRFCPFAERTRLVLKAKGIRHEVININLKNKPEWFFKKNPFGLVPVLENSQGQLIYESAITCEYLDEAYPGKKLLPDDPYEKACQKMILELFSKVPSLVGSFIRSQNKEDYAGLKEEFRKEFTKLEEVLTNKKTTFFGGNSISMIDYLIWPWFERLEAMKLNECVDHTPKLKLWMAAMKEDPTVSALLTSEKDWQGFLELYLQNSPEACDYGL
UniProt P46976: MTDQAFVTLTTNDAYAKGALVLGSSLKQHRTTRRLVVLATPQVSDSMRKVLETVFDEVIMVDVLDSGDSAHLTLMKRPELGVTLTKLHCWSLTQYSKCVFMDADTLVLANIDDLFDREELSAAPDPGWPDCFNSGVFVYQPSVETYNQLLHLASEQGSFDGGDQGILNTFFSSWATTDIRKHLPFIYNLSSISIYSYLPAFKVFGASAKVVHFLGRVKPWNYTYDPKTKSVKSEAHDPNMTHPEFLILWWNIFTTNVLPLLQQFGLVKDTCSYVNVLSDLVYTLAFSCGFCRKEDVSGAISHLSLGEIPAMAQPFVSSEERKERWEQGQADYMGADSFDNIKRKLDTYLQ
UniProt P30711: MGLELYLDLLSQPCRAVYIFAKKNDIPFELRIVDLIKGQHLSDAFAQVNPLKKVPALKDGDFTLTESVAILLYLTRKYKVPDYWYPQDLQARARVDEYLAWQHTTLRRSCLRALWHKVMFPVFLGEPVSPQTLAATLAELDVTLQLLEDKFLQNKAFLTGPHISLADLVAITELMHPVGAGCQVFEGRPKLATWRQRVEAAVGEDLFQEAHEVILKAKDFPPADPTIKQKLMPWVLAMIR
UniProt Q04756: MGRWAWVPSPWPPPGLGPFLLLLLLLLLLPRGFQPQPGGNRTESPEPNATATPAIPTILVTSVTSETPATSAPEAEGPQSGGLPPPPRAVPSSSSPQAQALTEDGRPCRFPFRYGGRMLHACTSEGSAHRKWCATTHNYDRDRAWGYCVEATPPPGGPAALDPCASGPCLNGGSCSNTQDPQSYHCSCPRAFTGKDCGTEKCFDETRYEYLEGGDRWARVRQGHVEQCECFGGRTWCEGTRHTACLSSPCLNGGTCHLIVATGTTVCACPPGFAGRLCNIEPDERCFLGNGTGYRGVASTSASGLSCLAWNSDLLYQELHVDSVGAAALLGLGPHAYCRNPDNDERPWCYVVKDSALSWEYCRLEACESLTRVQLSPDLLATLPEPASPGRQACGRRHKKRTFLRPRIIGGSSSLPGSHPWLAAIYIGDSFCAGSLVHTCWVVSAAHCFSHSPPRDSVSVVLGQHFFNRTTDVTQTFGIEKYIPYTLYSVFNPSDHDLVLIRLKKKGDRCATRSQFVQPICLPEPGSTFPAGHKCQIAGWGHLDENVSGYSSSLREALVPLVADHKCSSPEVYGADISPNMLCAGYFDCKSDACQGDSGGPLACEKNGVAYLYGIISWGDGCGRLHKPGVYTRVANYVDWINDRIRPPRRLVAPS
UniProt Q00403, whole entry, looked up: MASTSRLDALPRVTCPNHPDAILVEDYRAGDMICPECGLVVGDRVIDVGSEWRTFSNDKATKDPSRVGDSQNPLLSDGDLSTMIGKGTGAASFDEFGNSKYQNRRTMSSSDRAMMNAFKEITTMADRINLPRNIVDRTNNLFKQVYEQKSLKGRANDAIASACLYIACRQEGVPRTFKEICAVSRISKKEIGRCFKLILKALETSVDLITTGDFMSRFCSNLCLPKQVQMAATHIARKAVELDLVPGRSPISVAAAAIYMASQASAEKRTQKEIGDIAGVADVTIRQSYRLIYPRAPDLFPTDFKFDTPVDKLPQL
UniProt Q9BSE4: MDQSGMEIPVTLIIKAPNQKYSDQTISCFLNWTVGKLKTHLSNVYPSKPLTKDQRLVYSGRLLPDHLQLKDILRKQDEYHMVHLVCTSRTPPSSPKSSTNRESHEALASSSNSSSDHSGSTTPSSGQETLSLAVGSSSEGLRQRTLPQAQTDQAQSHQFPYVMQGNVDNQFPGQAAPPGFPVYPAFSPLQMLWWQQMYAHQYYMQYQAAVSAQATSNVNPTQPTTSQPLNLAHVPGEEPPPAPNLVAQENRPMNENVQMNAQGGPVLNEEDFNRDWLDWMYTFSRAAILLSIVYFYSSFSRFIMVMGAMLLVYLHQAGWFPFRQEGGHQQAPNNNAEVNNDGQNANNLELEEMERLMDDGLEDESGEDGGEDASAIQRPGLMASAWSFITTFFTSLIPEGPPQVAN
UniProt P49841: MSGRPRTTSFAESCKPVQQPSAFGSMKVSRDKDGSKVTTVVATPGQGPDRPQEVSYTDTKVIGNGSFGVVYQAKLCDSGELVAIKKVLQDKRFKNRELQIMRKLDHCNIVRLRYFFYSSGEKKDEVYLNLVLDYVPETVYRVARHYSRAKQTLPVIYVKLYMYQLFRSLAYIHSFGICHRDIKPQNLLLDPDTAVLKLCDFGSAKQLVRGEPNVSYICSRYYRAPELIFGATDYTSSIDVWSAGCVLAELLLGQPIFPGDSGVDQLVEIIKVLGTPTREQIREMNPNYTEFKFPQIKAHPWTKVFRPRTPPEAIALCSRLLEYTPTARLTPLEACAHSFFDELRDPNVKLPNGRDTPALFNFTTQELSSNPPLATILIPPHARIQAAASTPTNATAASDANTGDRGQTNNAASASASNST
UniProt P0C0S5, whole entry, looked up: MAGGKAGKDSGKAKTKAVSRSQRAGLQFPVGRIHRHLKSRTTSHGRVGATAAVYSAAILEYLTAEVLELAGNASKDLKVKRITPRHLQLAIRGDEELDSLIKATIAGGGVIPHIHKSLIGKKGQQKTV
UniProt P09105: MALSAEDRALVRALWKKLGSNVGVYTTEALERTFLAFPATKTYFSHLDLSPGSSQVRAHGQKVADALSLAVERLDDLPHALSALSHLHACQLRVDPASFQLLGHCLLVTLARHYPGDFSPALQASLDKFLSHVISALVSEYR

Experiments:
Assay in all cases: log2 fold change, soluble protein after heating vs DMSO (PISA); higher = thermal stabilisation; K562 cells, 10 uM, 30 min; active = over 0.2 and 3.5 SD of the protein, either way, in both replicates (recomputed)
IRAK-1-4 Inhibitor I = compound: C1COCCN1CCN2C3=CC=CC=C3N=C2NC(=O)C4=CC(=CC=C4)[N+](=O)[O-] [IRAK-1-4 Inhibitor I]
Procedure, shortened: (§1)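 Quantification of soluble protein used TMTpro 16plex LC-MS/MS, with channel sums equalised. Samples were the supernatant after 21,000xg for 90 min of pooled aliquots from K562 cells (2×10^6 cells/mL) treated with 10 μM compound for 30 min, heated for 3 min over 48°C-58°C, and extracted in PBS with 0.5% NP-40 at 4°C. Values, from duplicates, describe thermal stability against control samples on a log2 fold-change scale.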

ibrutinib = compound: C=CC(=O)N1CCC[C@@H](n2nc(-c3ccc(Oc4ccccc4)cc3)c3c(N)ncnc32)C1 [ibrutinib]
Procedure, shortened: as §1

ralimetinib = compound: CC(C)(C)Cn1c(N)nc2ccc(-c3[nH]c(C(C)(C)C)nc3-c3ccc(F)cc3)nc21 [ralimetinib]
Procedure, shortened: as §1

[1] = compound: CC(C)(O)CC(=O)NCCn1ccc2ncnc(Nc3ccc(Oc4cccc(C(F)(F)F)c4)c(Cl)c3)c21
Procedure, shortened: as §1

[2] = compound: CC(C)C1=C2N=C(C=C(N2N=C1)NCC3=CC=CC=C3)NCCCCCCN
Procedure, shortened: as §1

[3] = compound: CC(C)C[C@@H](C=O)NC(=O)[C@H](CC(C)C)NC(=O)[C@H](CC(C)C)NC(=O)OCc1ccccc1
Procedure, shortened: as §1

pinometostat = compound: CC(C)N(C[C@H]1O[C@@H](n2cnc3c(N)ncnc32)[C@H](O)[C@@H]1O)[C@H]1C[C@@H](CCc2nc3cc(C(C)(C)C)ccc3[nH]2)C1 [pinometostat]
Procedure, shortened: as §1

[4] = compound: CC1=C(C2=C(C=C1)C(=O)C3=CC=CC=C3N2CCCN)C
Procedure, shortened: as §1

[5] = compound: CC1=C(C=C(C=C1)NC(=O)C2=CC(=CC=C2)C(C)(C)C#N)NC3=CC4=C(C=C3)N=CN(C4=O)C
Procedure, shortened: as §1

[6] = compound: CC1=C(C=C(C=C1)NC(=O)C2=CC(=CC=C2)N(C)C)NC(=O)C3=CC=C(C=C3)O
Procedure, shortened: as §1

[7] = compound: CC1=CC=C(C=C1)SC2=C3C=C(SC3=CN=C2)C(=O)N
Procedure, shortened: as §1

[8] = compound: CC1=NC(=CC=C1)C2=C(N=C(N2)C(C)(C)C)C3=CC4=NC=CN=C4C=C3
Procedure, shortened: as §1

Nexturastat A = compound: CCCCN(Cc1ccc(C(=O)NO)cc1)C(=O)Nc1ccccc1 [Nexturastat A]
Procedure, shortened: as §1

vemurafenib = compound: CCCS(=O)(=O)Nc1ccc(F)c(C(=O)c2c[nH]c3ncc(-c4ccc(Cl)cc4)cc23)c1F [vemurafenib]
Procedure, shortened: as §1

[9] = compound: CCCS(=O)(=O)Nc1ccc(F)c(C(=O)c2c[nH]c3ncc(Cl)cc23)c1F
Procedure, shortened: as §1

[10] = compound: CCCc1cc(C)[nH]c(=O)c1CNC(=O)c1cc(-c2ccnc(N3CCN(C)CC3)c2)cc2c1cnn2C(C)C
Procedure, shortened: as §1

givinostat = compound: CCN(CC)Cc1ccc2cc(COC(=O)Nc3ccc(C(=O)NO)cc3)ccc2c1 [givinostat]
Procedure, shortened: as §1

barasertib = compound: CCN(CCCOc1ccc2c(Nc3cc(CC(=O)Nc4cccc(F)c4)[nH]n3)ncnc2c1)CCOP(=O)(O)O [barasertib]
Procedure, shortened: as §1

[11] = compound: CC(=O)c1cnc2ccc(-c3cc(Cl)c(O)c(Cl)c3)nc2c1N[C@H]1CC[C@H](CN(C)C)CC1
Procedure, shortened: as §1

[12] = compound: CC1=C(C(CC(=O)N1)C2=CC=C(C=C2)C(F)(F)F)C(=O)NC3=C(C=C4C(=C3)C=NN4)F
Procedure, shortened: as §1

Target	log2 fold change (IRAK-1-4 Inhibitor I)	log2 fold change (ibrutinib)	log2 fold change (ralimetinib)	log2 fold change [1]	log2 fold change [2]	log2 fold change [3]	log2 fold change (pinometostat)	log2 fold change [4]	log2 fold change [5]	log2 fold change [6]	log2 fold change [7]	log2 fold change [8]	log2 fold change (Nexturastat A)	log2 fold change (vemurafenib)	log2 fold change [9]	log2 fold change [10]	log2 fold change (givinostat)	log2 fold change (barasertib)	log2 fold change [11]	log2 fold change [12]
HEATR3 (UniProt Q7Z4Q2)	inactive: -0.08	inactive: 0.006	inactive: 0.07	inactive: -0.125	active: -0.319	inactive: -0.137	inactive: -0.032	inactive: -0.196	inactive: 0.004	inactive: 0.116	inactive: 0.034	inactive: 0.047	inactive: 0.016	inactive: 0.007	inactive: 0.082	inactive: -0.067	inactive: 0.069	inactive: 0.144	–	–
GTF3A (UniProt Q92664)	inactive: 0.034	inactive: -0.013	–	inactive: -0.084	inactive: -0.036	–	inactive: 0.004	inactive: 0.107	inactive: 0.074	–	inactive: 0.09	inactive: 0.125	inactive: -0.054	inactive: -0.075	inactive: 0.078	inactive: -0.035	inactive: -0.048	inactive: -0.053	inactive: 0.065	–
GTPBP6 (UniProt O43824)	inactive: -0.043	inactive: -0.081	inactive: 0.039	inactive: 0.111	inactive: 0.204	inactive: 0.024	inactive: 0.062	inactive: 0.013	inactive: 0.038	inactive: 0.014	–	inactive: -0.042	inactive: -0.037	inactive: 0.015	–	inactive: 0.006	inactive: -0.062	inactive: -0.015	inactive: 0.028	–
HAGHL (UniProt Q6PII5)	inactive: 0.059	inactive: -0.074	inactive: 0.115	inactive: -0.041	inactive: 0.009	inactive: 0.06	inactive: 0.02	inactive: -0.079	inactive: 0.018	inactive: 0.288	inactive: -0.108	inactive: -0.059	inactive: 0.029	–	inactive: -0.047	inactive: -0.025	inactive: 0.067	inactive: 0.086	–	–
GTF3C5 isoform 3 (UniProt Q9Y5Q8)	inactive: -0.028	inactive: 0.046	inactive: 0.01	inactive: -0.025	inactive: -0.293	inactive: 0.083	inactive: 0.109	inactive: -0.171	inactive: 0.058	inactive: -0.022	inactive: 0.088	inactive: 0.007	inactive: 0.136	inactive: 0.101	inactive: 0.056	inactive: 0.061	inactive: 0.045	inactive: 0.08	inactive: 0.047	–
HDAC7 isoform 5 (UniProt Q8WUI4)	inactive: 0.094	inactive: -0.007	inactive: -0.123	inactive: -0.031	inactive: 0.108	inactive: 0.036	inactive: 0.035	inactive: 0.065	inactive: -0.01	inactive: 0.028	inactive: -0.043	inactive: -0.002	inactive: 0.108	inactive: 0	inactive: -0.009	inactive: -0.014	–	inactive: 0	active: -0.561	–
GSTO1 (UniProt P78417)	inactive: 0.073	inactive: -0.029	inactive: 0.021	inactive: -0.029	inactive: 0.066	inactive: -0.045	inactive: -0.047	inactive: 0.021	inactive: -0.031	inactive: 0.002	inactive: 0.03	inactive: 0.03	inactive: -0.121	inactive: 0.02	inactive: 0.017	inactive: 0.15	inactive: -0.043	inactive: 0.016	inactive: 0.006	–
GYG1 (UniProt P46976)	inactive: -0.055	inactive: 0.025	inactive: 0.176	inactive: 0.029	inactive: -0.114	inactive: 0.064	inactive: 0.125	inactive: 0.035	inactive: 0.209	inactive: 0.035	inactive: -0.041	inactive: -0.029	inactive: 0.146	inactive: 0.014	inactive: 0.046	inactive: 0.101	inactive: 0.027	inactive: -0.037	inactive: -0.29	–
GSTT1 (UniProt P30711)	inactive: -0.054	inactive: 0.007	inactive: -0.079	inactive: -0.079	inactive: 0.076	inactive: -0.005	inactive: -0.124	inactive: 0.157	–	inactive: -0.004	inactive: 0.011	inactive: 0.101	inactive: -0.062	inactive: 0.064	inactive: -0.063	inactive: 0.081	inactive: 0.009	inactive: -0.018	inactive: 0.009	–
HGFAC (UniProt Q04756)	inactive: -0.065	inactive: 0.148	–	inactive: 0.226	inactive: 0.068	–	inactive: 0.081	inactive: -0.173	–	–	inactive: 0.029	inactive: -0.024	inactive: -0.22	–	inactive: -0.07	inactive: -0.417	inactive: -0.084	inactive: 0.037	–	inactive: -0.173
HERC2 (UniProt O95714)	inactive: -0.056	inactive: 0.187	inactive: 0.055	inactive: -0.024	–	inactive: 0.112	inactive: 0.236	inactive: -0.163	inactive: 0.057	inactive: 0.005	inactive: 0.063	inactive: -0.179	inactive: 0.182	inactive: -0.185	inactive: -0.162	inactive: -0.126	–	inactive: -0.36	inactive: -0.076	inactive: 0.057
GTF2B (UniProt Q00403)	inactive: -0.063	inactive: -0.064	inactive: 0.044	inactive: -0.215	inactive: -0.125	inactive: 0.068	inactive: 0	inactive: 0.07	inactive: -0.018	inactive: -0.092	inactive: 0.097	inactive: 0.097	inactive: -0.031	inactive: 0.104	inactive: 0.167	inactive: 0.017	inactive: 0.058	inactive: 0.044	inactive: -0.023	–
HERPUD2 (UniProt Q9BSE4)	inactive: 0.107	inactive: -0.071	inactive: 0.024	–	inactive: 0.021	inactive: 0.254	inactive: -0.037	–	–	inactive: -0.035	–	inactive: 0.065	–	inactive: 0.1	–	–	inactive: -0.04	inactive: -0.054	inactive: -0.109	–
H3-2 (UniProt Q5TEC6)	inactive: -0.176	inactive: 0.115	inactive: 0.14	–	inactive: 0.006	inactive: 0.167	inactive: 0.49	–	inactive: -0.335	inactive: 0.053	inactive: -0.326	inactive: -0.03	–	inactive: -0.808	inactive: -0.578	inactive: -0.616	inactive: 0.037	inactive: -0.056	–	inactive: 0.062
GSK3B isoform 2 (UniProt P49841)	inactive: 0.017	inactive: 0.019	inactive: -0.005	inactive: -0.07	inactive: 0.004	inactive: -0.031	inactive: -0.022	inactive: -0.017	inactive: 0.015	inactive: -0.022	inactive: 0.044	inactive: 0.034	inactive: 0.003	inactive: -0.008	inactive: -0.018	inactive: -0.066	inactive: -0.07	inactive: -0.017	inactive: 0.144	–
H2AZ1 (UniProt P0C0S5)	inactive: -0.115	inactive: 0.087	inactive: 0.247	inactive: 0.031	inactive: -0.022	inactive: 0.244	inactive: 0.268	active: 1.74	inactive: -0.051	inactive: 0	inactive: -0.174	inactive: -0.01	active: 0.75	inactive: -0.209	inactive: 0.233	inactive: 0.074	inactive: 0.454	inactive: -0.083	inactive: -0.125	–
HBQ1 (UniProt P09105)	inactive: 0.003	inactive: 0.016	inactive: -0.034	inactive: -0.078	inactive: 0.095	inactive: -0.102	inactive: 0.004	inactive: 0.147	inactive: 0.053	inactive: -0.14	inactive: 0.025	inactive: 0.052	inactive: -0.028	inactive: -0.013	inactive: 0.004	inactive: -0.012	inactive: -0.043	inactive: 0.038	inactive: 0.01	–

2 entries from above in another layout.
Target | log2 fold change (IRAK-1-4 Inhibitor I) | log2 fold change (ibrutinib) | log2 fold change (ralimetinib) | log2 fold change [1] | log2 fold change [2] | log2 fold change [3] | log2 fold change (pinometostat) | log2 fold change [4] | log2 fold change [5] | log2 fold change [6] | log2 fold change [7] | log2 fold change [8] | log2 fold change (Nexturastat A) | log2 fold change (vemurafenib) | log2 fold change [9] | log2 fold change [10] | log2 fold change (givinostat) | log2 fold change (barasertib) | log2 fold change [11] | log2 fold change [12]
GYG1 (UniProt P46976) | inactive: -0.055 | inactive: 0.025 | inactive: 0.176 | inactive: 0.029 | inactive: -0.114 | inactive: 0.064 | inactive: 0.125 | inactive: 0.035 | inactive: 0.209 | inactive: 0.035 | inactive: -0.041 | inactive: -0.029 | inactive: 0.146 | inactive: 0.014 | inactive: 0.046 | inactive: 0.101 | inactive: 0.027 | inactive: -0.037 | inactive: -0.29 | –
H3-2 (UniProt Q5TEC6) | inactive: -0.176 | inactive: 0.115 | inactive: 0.14 | – | inactive: 0.006 | inactive: 0.167 | inactive: 0.49 | – | inactive: -0.335 | inactive: 0.053 | inactive: -0.326 | inactive: -0.03 | – | inactive: -0.808 | inactive: -0.578 | inactive: -0.616 | inactive: 0.037 | inactive: -0.056 | – | inactive: 0.062
